# Data: article doi:10.1101/2020.01.13.904318 (bioRxiv, 2020)
# The exact form of at least one protein or probe is not confirmed. Weaker means in comparison with the reference protein, sequence or condition of that experiment. Tags and fusion partners may be left off the protein sequences shown.
# Molecular target: T1, FrlR (Eco) (Escherichia coli) (UniProt P45544)
# T1 sequence (looked up, limits assumed): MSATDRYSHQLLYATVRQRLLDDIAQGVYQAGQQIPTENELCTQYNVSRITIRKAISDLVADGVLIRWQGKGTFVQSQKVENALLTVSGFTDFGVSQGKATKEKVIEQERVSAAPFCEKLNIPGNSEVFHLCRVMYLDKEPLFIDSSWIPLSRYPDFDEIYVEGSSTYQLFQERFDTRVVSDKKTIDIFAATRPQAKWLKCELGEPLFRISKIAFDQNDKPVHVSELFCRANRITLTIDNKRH
# Assay: SPR
# Conditions: no effector
sequence,measurement,value
ACGGCCAGTGAATTCTAATACGACTCACTATAGGGATAAAAAAATAAATT (double strand) [Random control (Random-Fw/Random-Rev)],binding result,binds more weakly
